Primary screen of a compound library

Measurements from “University of Dundee, Small-Polar-MMV Screening Library” (2021), ChEMBL document CHEMBL3988442.

Toxoplasma: 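Assay of Toxoplasma gondii numbers, read through their beta-galactosidase reporter with a colour substrate. Tested at 10 µM. The record gives no direction; the compounds picked for IC50 retests had high values, so higher reads as fewer parasites. Size under these conditions: about 67,000 compounds, about 260 of them at 50% or above in at least one test.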
Leishmania in macrophages: 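Cell assay of Leishmania donovani living inside macrophages; the read-out is not stated. Concentration: 30 µM. Higher reads as stronger inhibition (inferred: compounds with an IC50 in retests scored well above the rest). Of about 69,000 compounds tested this way, about 1,000 (1.5%) reached 50% or more in at least one test.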

Each number is a percent effect as filed.
The controls that fix the scale are not given in the record; negative values are as filed.
This is an unselected part of the compounds tested.
Two or more numbers in one place are separate tests of the same structure; such repeats can differ widely.

For Cn1cccc1C(=O)N1CCCCC1c1[nH]ncc1S(C)(=O)=O (centres unmarked) the result was Toxoplasma: -15.54%; Leishmania in macrophages: -11.71% & 4.555%.
For COc1nc(C)cc(C)c1CNC(=O)N(C)Cc1cnn(C)c1 the result was Toxoplasma: 8.401%; Leishmania in macrophages: 5.996%.
For CCn1cc2c(n1)CN(S(=O)(=O)c1ccc(C)cc1)CC2COC (centres unmarked) the result was Toxoplasma: -1.193%; Leishmania in macrophages: 2.084%.
For N#Cc1cc(F)ccc1CN1CCCCC1Cn1cncn1 (centres unmarked) the result was Toxoplasma: 2.809%; Leishmania in macrophages: 21.61%.
For [H][C@]12CN(C)CCN1C(=O)N(C1CCCCC1)C2 the result was Toxoplasma: -2.107%; Leishmania in macrophages: -7.24%.
For Cc1ccccc1-n1c(C)cc(=O)[nH]c1=O the result was Toxoplasma: 12.26%; Leishmania in macrophages: -14.5%.
For CCc1nnc(SCc2nonc2C)n1C the result was Toxoplasma: -1.371%; Leishmania in macrophages: -8.206%.
For CC(C)n1nnnc1-c1ccc(NC(=O)CC(F)(F)F)cc1F the result was Toxoplasma: 3.181%; Leishmania in macrophages: 0.05575%.
For CN(CCCNC(=O)c1ccccc1F)CC(F)(F)F the result was Toxoplasma: 20.21%; Leishmania in macrophages: 26.13%.
For CCNc1ncc(C(=O)NCc2csc(-c3ncccn3)n2)cn1 the result was Toxoplasma: 3.842%; Leishmania in macrophages: 20.59%.
For CN1CCC(N[C@@H]2CO[C@H](CNC(=O)Nc3ccccc3)[C@H]2O)CC1 the result was Toxoplasma: 14.73%; Leishmania in macrophages: 8.031%.
For Cn1cc(C2CCCN2Cc2csc(C(C)(C)C)n2)cn1 (centres unmarked) the result was Leishmania in macrophages: 5.871%.
For Cc1nc(-c2ccc(S(=O)(=O)N3CCSC3)cc2)co1 the result was Toxoplasma: -12.42%; Leishmania in macrophages: 4.454%.
For Cc1ncsc1CN(Cc1ccccc1)Cc1ccncc1 the result was Toxoplasma: -0.7967%; Leishmania in macrophages: 55.73%.
For [H][C@@]12CCN(S(=O)(=O)CC)[C@]1([H])CC[C@H](c1nnc(C)o1)O2 the result was Toxoplasma: -11.18%; Leishmania in macrophages: 47.43%.
For O=C(c1ccc(C2CCNC2)cc1)N1CCC(N2CCC(O)CC2)CC1 (centres unmarked) the result was Toxoplasma: -30.04%; Leishmania in macrophages: -25.69%.
For CC(NCC1CCN(CCO)CC1)c1cccnc1 (centres unmarked) the result was Toxoplasma: 3.659%; Leishmania in macrophages: 10.64%.
For CCNC(=O)CNS(=O)(=O)Cc1cc(-c2ccccc2)no1 the result was Toxoplasma: 31.5%; Leishmania in macrophages: 26.67%.
For CCn1cc(NS(=O)(=O)c2ccc(F)cc2)c(C(=O)NCC(C)C)n1 the result was Toxoplasma: 7.853%; Leishmania in macrophages: 3.66%.
For CCOC(=O)N1CCN(c2nc(N)c3ccccc3n2)CC1.Cl the result was Toxoplasma: -2.679%; Leishmania in macrophages: 40.24%.
For CCNC(=O)N(C)C(c1cccc(F)c1)c1ccccn1 (centres unmarked) the result was Toxoplasma: 4.447%; Leishmania in macrophages: 34.01%.
For CC(C)(CNc1cn[nH]c(=O)c1Cl)c1ccc2c(c1)OCCO2 the result was Toxoplasma: 3.047%; Leishmania in macrophages: 25.33%.
For Cc1cccc(CN2CCCC3(CCN(CC(=O)N(C)C)C3=O)C2)n1.O=C(O)C(F)(F)F (centres unmarked) the result was Toxoplasma: 0.7083%; Leishmania in macrophages: -21.17%.
For COc1ccc(C(C)N2CCC(C(=O)NC3CC3)CC2)cc1Cl (centres unmarked) the result was Toxoplasma: 0.6238%; Leishmania in macrophages: 29.42%.
For CC(=O)N1CCn2c(C(=O)N(C)C)cnc2C1 the result was Toxoplasma: 7.598%; Leishmania in macrophages: 11.38%.
For Cc1ccc2c(n1)N(CCn1cccn1)CCN(C(=O)NC1CC1)C2.O=C(O)C(F)(F)F the result was Toxoplasma: 3.987%; Leishmania in macrophages: 47.4%.
For CCc1ncc2c(n1)CN(CC(=O)Nc1cc(C)no1)CC2 the result was Toxoplasma: 1.258%; Leishmania in macrophages: 26.77%.
For COc1cc(C)nc(N2CCN(C(=O)c3ccccc3C)CC2)n1 the result was Toxoplasma: 1.895%; Leishmania in macrophages: 13.28%.
For CN(C)c1ncc(-c2cc(C(=O)N3CCCC3)n(CC3CC3)c2)cn1 the result was Toxoplasma: 2.852%; Leishmania in macrophages: -11.64%.

Repeated from the top, 2 entries:

Cn1cccc1C(=O)N1CCCCC1c1[nH]ncc1S(C)(=O)=O (centres unmarked) gave Toxoplasma: -15.54%; Leishmania in macrophages: -11.71% & 4.555%.
COc1nc(C)cc(C)c1CNC(=O)N(C)Cc1cnn(C)c1 gave Toxoplasma: 8.401%; Leishmania in macrophages: 5.996%.